# Results: patent US20210386877A1, “RADIOTHERAPEUTIC COMBINATION THERAPY FOR THE TREATMENT OF CANCER” (Andarix Pharmaceuticals, Inc., priority 2019, published 2021)
# For at least one compound, name, drawing or mass did not settle the structure.
# Tested on: SSTR2
# Test: SSTR2 expression in small cell cell lines after 24 hours of incubation (FIG. 2, FIG. 3)
# Type: cell-based
# Conditions: similar experiments with the demethylating agent; three tested cell lines
# Method: FIG. 3 graphically quantifies the expression of SSTR2 in small cell cell lines after 24 hours of incubation with 3 and 5 mM valproic acid versus the demethylating agent, Decitabine.
# FIG. 3 graphically quantifies the expression of SSTR2 […].
smiles,measurement,value
Nc1ncn([C@H]2C[C@H](O)[C@@H](CO)O2)c(=O)n1 [Decitabine],SSTR2 expression,failed to demonstrate upregulation of SSTR2 in two of the three tested cell lines
